In the supplement of paper PMC6411743:
± gives the standard deviation of the averaged measurements. This is a selection; strong and weak results do not stand in their true shares.

By UniProt entry, the sequences of proteins in these tests, tags left out. Where a name states a change or a piece, a line headed by the entry shows the natural chain unless it says otherwise.
UniProt Q96CD2: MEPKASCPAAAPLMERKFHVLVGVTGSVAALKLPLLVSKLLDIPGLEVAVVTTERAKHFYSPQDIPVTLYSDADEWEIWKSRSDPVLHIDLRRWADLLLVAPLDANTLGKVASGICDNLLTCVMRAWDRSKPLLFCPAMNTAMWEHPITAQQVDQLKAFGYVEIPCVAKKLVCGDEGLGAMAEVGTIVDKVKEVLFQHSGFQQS
UniProt Q7Z569: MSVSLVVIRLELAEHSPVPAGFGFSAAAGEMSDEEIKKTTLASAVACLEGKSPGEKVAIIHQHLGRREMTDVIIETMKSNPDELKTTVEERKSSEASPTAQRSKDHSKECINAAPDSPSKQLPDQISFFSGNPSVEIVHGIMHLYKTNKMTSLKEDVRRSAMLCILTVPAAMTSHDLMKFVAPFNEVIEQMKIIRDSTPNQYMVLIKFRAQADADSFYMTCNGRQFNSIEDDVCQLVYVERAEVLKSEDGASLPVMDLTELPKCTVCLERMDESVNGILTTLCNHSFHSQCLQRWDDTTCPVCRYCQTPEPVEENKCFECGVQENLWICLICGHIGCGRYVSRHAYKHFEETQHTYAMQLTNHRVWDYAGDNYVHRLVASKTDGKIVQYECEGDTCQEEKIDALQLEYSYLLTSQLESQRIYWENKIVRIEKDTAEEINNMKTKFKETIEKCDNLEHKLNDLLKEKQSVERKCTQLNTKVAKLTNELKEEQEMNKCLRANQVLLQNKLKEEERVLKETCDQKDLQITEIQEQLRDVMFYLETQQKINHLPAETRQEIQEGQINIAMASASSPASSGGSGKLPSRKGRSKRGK
UniProt Q99708: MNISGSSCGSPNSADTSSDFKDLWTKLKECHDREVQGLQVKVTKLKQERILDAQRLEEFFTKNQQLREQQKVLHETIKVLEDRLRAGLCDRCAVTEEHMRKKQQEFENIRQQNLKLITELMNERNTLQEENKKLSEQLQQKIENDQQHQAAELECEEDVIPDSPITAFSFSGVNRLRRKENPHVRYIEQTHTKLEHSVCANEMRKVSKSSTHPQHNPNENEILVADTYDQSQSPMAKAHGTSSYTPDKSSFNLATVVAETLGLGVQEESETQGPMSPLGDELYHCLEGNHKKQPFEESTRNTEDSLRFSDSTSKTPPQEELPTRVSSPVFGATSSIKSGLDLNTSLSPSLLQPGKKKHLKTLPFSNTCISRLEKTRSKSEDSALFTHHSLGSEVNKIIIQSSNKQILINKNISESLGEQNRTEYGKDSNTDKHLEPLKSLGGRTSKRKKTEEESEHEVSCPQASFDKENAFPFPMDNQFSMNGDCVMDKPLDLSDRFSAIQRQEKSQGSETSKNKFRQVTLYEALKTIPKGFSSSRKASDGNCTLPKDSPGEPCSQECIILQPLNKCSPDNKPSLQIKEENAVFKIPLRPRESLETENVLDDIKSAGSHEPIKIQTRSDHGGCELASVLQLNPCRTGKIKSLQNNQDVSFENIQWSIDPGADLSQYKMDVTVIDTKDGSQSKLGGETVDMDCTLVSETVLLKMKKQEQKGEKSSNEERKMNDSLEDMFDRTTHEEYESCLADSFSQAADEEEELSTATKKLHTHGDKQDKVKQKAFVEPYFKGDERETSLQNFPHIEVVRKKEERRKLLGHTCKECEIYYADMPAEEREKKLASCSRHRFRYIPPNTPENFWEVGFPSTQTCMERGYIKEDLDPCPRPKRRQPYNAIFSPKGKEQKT
UniProt Q8WWM7: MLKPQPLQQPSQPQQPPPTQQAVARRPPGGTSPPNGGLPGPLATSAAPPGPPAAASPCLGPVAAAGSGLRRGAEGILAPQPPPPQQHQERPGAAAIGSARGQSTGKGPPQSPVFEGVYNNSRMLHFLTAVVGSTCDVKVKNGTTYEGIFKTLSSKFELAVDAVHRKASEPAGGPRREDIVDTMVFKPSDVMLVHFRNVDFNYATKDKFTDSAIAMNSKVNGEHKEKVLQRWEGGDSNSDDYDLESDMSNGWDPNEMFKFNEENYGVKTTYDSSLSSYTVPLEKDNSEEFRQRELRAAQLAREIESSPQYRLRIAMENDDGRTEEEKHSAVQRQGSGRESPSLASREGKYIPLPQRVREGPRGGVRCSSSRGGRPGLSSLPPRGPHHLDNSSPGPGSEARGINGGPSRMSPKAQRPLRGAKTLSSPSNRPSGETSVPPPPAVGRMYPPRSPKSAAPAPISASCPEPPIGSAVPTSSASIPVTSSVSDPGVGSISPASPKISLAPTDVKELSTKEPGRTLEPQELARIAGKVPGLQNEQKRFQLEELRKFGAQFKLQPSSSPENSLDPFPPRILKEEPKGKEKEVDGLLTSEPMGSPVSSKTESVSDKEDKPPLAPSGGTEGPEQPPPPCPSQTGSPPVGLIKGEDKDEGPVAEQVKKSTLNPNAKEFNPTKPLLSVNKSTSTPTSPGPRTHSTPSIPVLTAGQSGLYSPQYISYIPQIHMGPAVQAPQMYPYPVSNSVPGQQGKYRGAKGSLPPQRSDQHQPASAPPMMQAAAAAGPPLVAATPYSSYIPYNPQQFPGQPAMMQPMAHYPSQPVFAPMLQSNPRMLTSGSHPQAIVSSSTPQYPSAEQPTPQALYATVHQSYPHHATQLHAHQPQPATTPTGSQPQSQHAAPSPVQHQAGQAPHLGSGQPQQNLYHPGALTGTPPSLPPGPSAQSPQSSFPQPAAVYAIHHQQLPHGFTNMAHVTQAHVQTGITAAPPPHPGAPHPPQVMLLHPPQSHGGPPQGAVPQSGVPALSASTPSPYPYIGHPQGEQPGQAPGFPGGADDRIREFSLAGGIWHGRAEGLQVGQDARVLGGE
UniProt Q14699: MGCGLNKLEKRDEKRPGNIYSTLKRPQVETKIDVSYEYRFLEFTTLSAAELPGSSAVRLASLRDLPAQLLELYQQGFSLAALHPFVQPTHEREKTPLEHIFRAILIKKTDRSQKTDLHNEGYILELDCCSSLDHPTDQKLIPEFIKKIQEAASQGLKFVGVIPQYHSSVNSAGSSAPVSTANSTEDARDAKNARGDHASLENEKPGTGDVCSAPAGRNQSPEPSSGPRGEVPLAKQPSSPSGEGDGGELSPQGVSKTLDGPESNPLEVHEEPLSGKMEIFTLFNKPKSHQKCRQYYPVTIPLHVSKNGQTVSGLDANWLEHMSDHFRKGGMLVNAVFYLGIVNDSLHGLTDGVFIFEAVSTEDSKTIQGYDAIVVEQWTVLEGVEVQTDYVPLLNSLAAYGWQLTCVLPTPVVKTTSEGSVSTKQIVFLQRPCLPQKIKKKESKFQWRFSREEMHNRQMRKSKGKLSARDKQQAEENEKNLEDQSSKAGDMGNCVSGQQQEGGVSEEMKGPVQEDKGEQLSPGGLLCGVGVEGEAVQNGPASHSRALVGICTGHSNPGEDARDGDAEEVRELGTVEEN
UniProt Q9UPW5: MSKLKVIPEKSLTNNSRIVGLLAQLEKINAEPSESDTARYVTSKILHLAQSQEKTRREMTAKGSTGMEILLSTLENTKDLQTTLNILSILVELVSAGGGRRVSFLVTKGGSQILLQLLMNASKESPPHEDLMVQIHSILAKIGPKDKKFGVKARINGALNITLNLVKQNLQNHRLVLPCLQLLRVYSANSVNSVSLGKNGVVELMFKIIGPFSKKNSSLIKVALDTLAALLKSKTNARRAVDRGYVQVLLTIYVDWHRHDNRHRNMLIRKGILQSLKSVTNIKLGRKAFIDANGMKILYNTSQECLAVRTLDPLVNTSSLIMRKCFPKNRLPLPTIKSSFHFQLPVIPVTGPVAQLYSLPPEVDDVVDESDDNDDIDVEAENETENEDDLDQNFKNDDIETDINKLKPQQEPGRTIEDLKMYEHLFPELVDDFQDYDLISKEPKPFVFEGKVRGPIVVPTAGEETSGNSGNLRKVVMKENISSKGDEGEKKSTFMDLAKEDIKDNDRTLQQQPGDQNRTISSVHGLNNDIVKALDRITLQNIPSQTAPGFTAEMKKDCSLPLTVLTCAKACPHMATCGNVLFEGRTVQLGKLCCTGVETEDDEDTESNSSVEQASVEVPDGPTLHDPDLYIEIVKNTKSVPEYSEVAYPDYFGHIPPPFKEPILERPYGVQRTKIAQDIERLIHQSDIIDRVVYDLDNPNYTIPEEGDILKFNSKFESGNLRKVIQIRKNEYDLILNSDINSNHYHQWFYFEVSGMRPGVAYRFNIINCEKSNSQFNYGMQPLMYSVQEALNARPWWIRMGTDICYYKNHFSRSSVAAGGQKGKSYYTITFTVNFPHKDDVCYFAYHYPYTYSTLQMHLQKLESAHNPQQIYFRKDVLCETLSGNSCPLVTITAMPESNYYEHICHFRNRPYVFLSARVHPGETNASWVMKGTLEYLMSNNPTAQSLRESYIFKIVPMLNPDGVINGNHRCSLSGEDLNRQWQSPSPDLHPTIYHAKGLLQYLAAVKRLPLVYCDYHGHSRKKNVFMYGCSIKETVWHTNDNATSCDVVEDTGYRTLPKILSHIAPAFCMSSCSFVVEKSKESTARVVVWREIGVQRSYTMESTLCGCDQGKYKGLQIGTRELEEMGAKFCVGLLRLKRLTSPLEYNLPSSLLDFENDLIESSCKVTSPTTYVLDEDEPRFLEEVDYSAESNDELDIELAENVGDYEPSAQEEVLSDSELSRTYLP
UniProt P78364: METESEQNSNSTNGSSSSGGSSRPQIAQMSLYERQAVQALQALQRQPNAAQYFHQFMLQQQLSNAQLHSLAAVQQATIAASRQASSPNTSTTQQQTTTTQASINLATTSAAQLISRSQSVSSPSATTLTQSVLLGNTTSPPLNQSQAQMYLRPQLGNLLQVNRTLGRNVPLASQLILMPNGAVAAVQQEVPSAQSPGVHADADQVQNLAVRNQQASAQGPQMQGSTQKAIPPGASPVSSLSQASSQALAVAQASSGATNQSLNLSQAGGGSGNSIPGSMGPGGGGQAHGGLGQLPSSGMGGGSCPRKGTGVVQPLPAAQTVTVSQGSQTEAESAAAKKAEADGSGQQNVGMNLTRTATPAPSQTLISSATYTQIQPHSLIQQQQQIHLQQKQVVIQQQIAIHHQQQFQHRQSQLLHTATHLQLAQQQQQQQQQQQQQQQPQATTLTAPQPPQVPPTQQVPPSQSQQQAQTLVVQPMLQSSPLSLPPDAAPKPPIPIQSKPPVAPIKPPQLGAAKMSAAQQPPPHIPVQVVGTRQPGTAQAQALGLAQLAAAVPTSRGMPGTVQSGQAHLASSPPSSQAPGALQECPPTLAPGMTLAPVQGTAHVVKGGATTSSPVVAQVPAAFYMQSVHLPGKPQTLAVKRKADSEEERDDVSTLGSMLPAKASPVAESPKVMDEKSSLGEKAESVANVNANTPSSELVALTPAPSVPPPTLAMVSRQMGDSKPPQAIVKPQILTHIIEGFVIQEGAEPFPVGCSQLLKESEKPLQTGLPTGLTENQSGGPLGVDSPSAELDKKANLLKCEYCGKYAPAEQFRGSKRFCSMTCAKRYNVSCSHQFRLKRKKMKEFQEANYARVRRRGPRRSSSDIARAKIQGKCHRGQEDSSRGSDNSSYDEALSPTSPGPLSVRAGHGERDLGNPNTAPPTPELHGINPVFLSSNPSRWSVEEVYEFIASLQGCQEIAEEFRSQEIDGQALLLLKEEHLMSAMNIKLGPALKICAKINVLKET
UniProt Q07021: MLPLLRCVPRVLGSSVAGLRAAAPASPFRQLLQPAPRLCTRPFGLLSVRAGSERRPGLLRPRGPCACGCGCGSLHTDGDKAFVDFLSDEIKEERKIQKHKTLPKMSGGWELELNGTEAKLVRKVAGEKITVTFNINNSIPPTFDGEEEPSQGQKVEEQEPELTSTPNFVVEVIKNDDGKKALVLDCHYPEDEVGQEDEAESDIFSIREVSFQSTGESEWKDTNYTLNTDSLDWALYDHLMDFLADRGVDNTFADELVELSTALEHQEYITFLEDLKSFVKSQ
UniProt Q96SB4, whole entry: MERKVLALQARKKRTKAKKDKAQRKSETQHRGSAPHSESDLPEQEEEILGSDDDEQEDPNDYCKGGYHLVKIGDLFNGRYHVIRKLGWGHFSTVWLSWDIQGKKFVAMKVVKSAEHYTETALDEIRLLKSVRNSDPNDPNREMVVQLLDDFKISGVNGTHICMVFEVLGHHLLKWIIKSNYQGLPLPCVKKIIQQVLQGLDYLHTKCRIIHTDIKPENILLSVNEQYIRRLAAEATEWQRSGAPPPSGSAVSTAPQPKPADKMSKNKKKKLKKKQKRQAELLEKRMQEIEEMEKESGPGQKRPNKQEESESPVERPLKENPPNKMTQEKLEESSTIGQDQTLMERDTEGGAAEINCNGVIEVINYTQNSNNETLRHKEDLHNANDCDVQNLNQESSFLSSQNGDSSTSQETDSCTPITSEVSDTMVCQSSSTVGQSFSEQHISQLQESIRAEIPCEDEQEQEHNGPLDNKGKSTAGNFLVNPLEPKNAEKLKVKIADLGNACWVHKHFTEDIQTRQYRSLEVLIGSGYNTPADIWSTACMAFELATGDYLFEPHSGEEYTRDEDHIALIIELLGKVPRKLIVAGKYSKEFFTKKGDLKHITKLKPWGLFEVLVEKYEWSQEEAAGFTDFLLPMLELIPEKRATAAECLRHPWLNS
UniProt Q9BUK0: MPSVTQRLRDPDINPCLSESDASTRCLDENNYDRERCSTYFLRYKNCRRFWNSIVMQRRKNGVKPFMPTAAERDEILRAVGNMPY

Compound: Nc1ncnc2c1ncn2[C@@H]1O[C@H](COP(=O)(O)OP(=O)(O)NP(=O)(O)O)[C@@H](O)[C@H]1O [adenylyl imidodiphosphate]
Experiment: NP40-soluble protein abundance relative to vehicle (solubility fold change) (ratio); higher = more soluble protein in presence of AMP-PNP
Summary of the method: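 Across three independent experiments, values are fold changes against the detergent-processed vehicle for each replicate, based on vsn-normalised intensities. The samples were Jurkat crude lysate treated with eight concentrations (0.1 to 10 mM) for 10 min at room temperature and then 3 min at 37 °C. Lysate was solubilised with 0.8% NP40 and benzonase, ultracentrifuged, and the supernatant analysed by TMT-labelled LC-MS/MS.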

Target	NP40-soluble protein abundance (concentration: 1mM)	NP40-soluble protein abundance (concentration: 2mM)	NP40-soluble protein abundance (concentration: 4mM)	NP40-soluble protein abundance (concentration: 6mM)	NP40-soluble protein abundance (concentration: 8mM)	NP40-soluble protein abundance (concentration: 10mM)
H7BXC7 and related entries (UniProt Q9H7P9)	1.034 ± 0.0048	1.03 ± 0.049	1.02 ± 0.024	0.968 ± 0.012	0.978 ± 0.015	1 ± 0.032
J3KR72 and related entries (UniProt P49848)	1.04 ± 0.052	1.07 ± 0.019	1.05 ± 0.035	1.07 ± 0.097	1.08 ± 0.098	1.13 ± 0.096
H3BRQ0 and related entries (UniProt Q96CD2)	0.997 ± 0.028	0.998 ± 0.014	0.9917 ± 0.0054	1.018 ± 0.008	1 ± 0.041	0.978 ± 0.011
H0Y360 and related entries (UniProt Q01433)	0.978 ± 0.021	0.968 ± 0.028	0.963 ± 0.0099	0.966 ± 0.016	0.968 ± 0.012	0.968 ± 0.028
H7C488 and related entries (UniProt Q9NQ48)	0.955 ± 0.1	1.025 ± 0.0079	0.93 ± 0.12	0.855 ± 0.062	0.889 ± 0.014	0.74 ± 0.1
J3KNN7 and related entries (UniProt Q7Z569)	1.014 ± 0.0046	1.03 ± 0.022	1.05 ± 0.023	0.988 ± 0.015	0.998 ± 0.015	1.02 ± 0.022
I6L8A6 and related entries (UniProt Q99708)	0.981 ± 0.029	0.989 ± 0.022	1.02 ± 0.067	0.975 ± 0.075	0.97 ± 0.065	0.956 ± 0.054
H3BP28 and related entries (UniProt Q99807)	0.971 ± 0.054	0.962 ± 0.038	0.947 ± 0.04	0.972 ± 0.071	0.98 ± 0.037	0.959 ± 0.044
H3BSW0 and related entries (UniProt Q8N9N7)	0.99 ± 0.038	0.983 ± 0.016	0.943 ± 0.022	0.95 ± 0.018	0.96 ± 0.011	0.955 ± 0.022
H0YD36 and related entries (UniProt P54098)	0.984 ± 0.018	0.95 ± 0.017	0.963 ± 0.018	0.941 ± 0.022	0.969 ± 0.035	0.952 ± 0.04
J3KPP4 and related entries (UniProt O95232)	1.02 ± 0.036	1.06 ± 0.058	1.06 ± 0.019	1.22 ± 0.015	1.3 ± 0.039	1.51 ± 0.049
H7C2Q8 and related entries (UniProt Q99848)	0.976 ± 0.033	1 ± 0.046	0.988 ± 0.018	0.994 ± 0.042	0.951 ± 0.032	1.06 ± 0.027
H3BLU2 and related entries (UniProt Q13449)	1 ± 0.025	1.09 ± 0.064	0.9961 ± 0.0087	1.01 ± 0.033	0.95 ± 0.055	0.99 ± 0.029
J3QKT3 and related entries (UniProt P32322)	1 ± 0.017	1 ± 0.068	0.998 ± 0.046	1.04 ± 0.048	1.03 ± 0.041	1.05 ± 0.013
H0YLE6 and related entries (UniProt Q9NWH9)	1.05 ± 0.044	1.11 ± 0.083	1.08 ± 0.039	1.12 ± 0.092	1.11 ± 0.094	1.17 ± 0.094
H3BUF6 and related entries (UniProt Q8WWM7)	1.027 ± 0.0083	1.1 ± 0.094	1.04 ± 0.033	1.05 ± 0.024	1.01 ± 0.021	1.07 ± 0.033
UniProt I3L0E3	1.02 ± 0.046	0.983 ± 0.096	0.972 ± 0.063	0.963 ± 0.084	0.938 ± 0.12	0.956 ± 0.13
H3BNW0 and related entries (UniProt Q9NXG2)	0.993 ± 0.021	1.05 ± 0.087	1.04 ± 0.033	1.12 ± 0.086	1.11 ± 0.049	1.12 ± 0.073
J3KMZ7 and related entries (UniProt Q9H0H0)	1.04 ± 0.041	1.03 ± 0.05	1.05 ± 0.033	1.06 ± 0.069	1.04 ± 0.054	1.09 ± 0.056
H7C1J8 and related entries (UniProt P51991)	1.07 ± 0.15	1.15 ± 0.11	1.07 ± 0.16	1.12 ± 0.19	1.18 ± 0.18	1.24 ± 0.25
J3KQ40 and related entries (UniProt O95759)	1.004 ± 0.0068	1 ± 0.014	0.995 ± 0.018	1.014 ± 0.0064	1 ± 0.017	0.9892 ± 0.0093
H3BPT7 and related entries (UniProt Q8N554)	1.01 ± 0.029	0.984 ± 0.013	0.9796 ± 0.0046	1.01 ± 0.037	0.992 ± 0.024	0.998 ± 0.024

A second format for part of the listing above:
Target,NP40-soluble protein abundance (concentration: 1mM),NP40-soluble protein abundance (concentration: 2mM),NP40-soluble protein abundance (concentration: 4mM),NP40-soluble protein abundance (concentration: 6mM),NP40-soluble protein abundance (concentration: 8mM),NP40-soluble protein abundance (concentration: 10mM)
H3BRQ0 and related entries (UniProt Q96CD2),0.997 ± 0.028,0.998 ± 0.014,0.9917 ± 0.0054,1.018 ± 0.008,1 ± 0.041,0.978 ± 0.011
H0Y360 and related entries (UniProt Q01433),0.978 ± 0.021,0.968 ± 0.028,0.963 ± 0.0099,0.966 ± 0.016,0.968 ± 0.012,0.968 ± 0.028
H7C488 and related entries (UniProt Q9NQ48),0.955 ± 0.1,1.025 ± 0.0079,0.93 ± 0.12,0.855 ± 0.062,0.889 ± 0.014,0.74 ± 0.1
J3KNN7 and related entries (UniProt Q7Z569),1.014 ± 0.0046,1.03 ± 0.022,1.05 ± 0.023,0.988 ± 0.015,0.998 ± 0.015,1.02 ± 0.022
I6L8A6 and related entries (UniProt Q99708),0.981 ± 0.029,0.989 ± 0.022,1.02 ± 0.067,0.975 ± 0.075,0.97 ± 0.065,0.956 ± 0.054
H3BP28 and related entries (UniProt Q99807),0.971 ± 0.054,0.962 ± 0.038,0.947 ± 0.04,0.972 ± 0.071,0.98 ± 0.037,0.959 ± 0.044
H3BSW0 and related entries (UniProt Q8N9N7),0.99 ± 0.038,0.983 ± 0.016,0.943 ± 0.022,0.95 ± 0.018,0.96 ± 0.011,0.955 ± 0.022
H0YD36 and related entries (UniProt P54098),0.984 ± 0.018,0.95 ± 0.017,0.963 ± 0.018,0.941 ± 0.022,0.969 ± 0.035,0.952 ± 0.04

(further entries)

Target	NP40-soluble protein abundance (concentration: 1mM)	NP40-soluble protein abundance (concentration: 2mM)	NP40-soluble protein abundance (concentration: 4mM)	NP40-soluble protein abundance (concentration: 6mM)	NP40-soluble protein abundance (concentration: 8mM)	NP40-soluble protein abundance (concentration: 10mM)
G3XAJ6 and related entries (UniProt Q14699)	0.987 ± 0.012	1.03 ± 0.045	1.03 ± 0.028	0.981 ± 0.023	0.954 ± 0.029	0.984 ± 0.036
H0Y4T4 and related entries (UniProt Q5SW79)	1.02 ± 0.024	1.02 ± 0.028	0.99 ± 0.042	0.951 ± 0.058	0.923 ± 0.042	0.942 ± 0.064
J3KNS1 and related entries (UniProt Q9UPW5)	1.009 ± 0.01	1.01 ± 0.036	1.03 ± 0.019	1.01 ± 0.023	1.01 ± 0.027	1.032 ± 0.0054
I3L0U5 and related entries (UniProt Q6PK04)	0.986 ± 0.019	0.98 ± 0.016	1.003 ± 0.0058	1.0016 ± 0.00038	1.03 ± 0.021	1.01 ± 0.032
UniProt G3V599	1.01 ± 0.031	1.06 ± 0.059	1.03 ± 0.057	0.9787 ± 0.0067	0.984 ± 0.015	0.976 ± 0.034
J3KP26 and related entries (UniProt Q86W74)	1.03 ± 0.02	1.006 ± 0.01	0.9795 ± 0.0078	1 ± 0.046	0.983 ± 0.031	0.979 ± 0.039
I3L165 and related entries (UniProt O14964)	0.981 ± 0.03	0.987 ± 0.067	0.993 ± 0.049	1.01 ± 0.096	1.02 ± 0.05	1.04 ± 0.069
J3KN59 and related entries (UniProt Q12982)	1.06 ± 0.063	1.06 ± 0.024	1.01 ± 0.03	1 ± 0.079	0.986 ± 0.046	0.992 ± 0.029
J3KQH6 and related entries (UniProt P78364)	1.01 ± 0.067	1.01 ± 0.02	1.01 ± 0.018	1.04 ± 0.047	1.03 ± 0.025	1.05 ± 0.032
H0Y659 and related entries (UniProt Q7Z6Z7)	0.996 ± 0.012	0.9889 ± 0.0057	0.9758 ± 0.0051	0.962 ± 0.023	0.948 ± 0.023	0.948 ± 0.039
I3L3Q7 and related entries (UniProt Q07021)	0.766 ± 0.17	0.996 ± 0.18	0.842 ± 0.29	0.94 ± 0.29	0.883 ± 0.043	0.818 ± 0.18
G3V529 and related entries (UniProt Q9GZR7)	1.018 ± 0.0045	0.986 ± 0.022	0.9959 ± 0.0084	0.986 ± 0.015	0.9765 ± 0.0097	0.99 ± 0.014
H3BLV9 and related entries (UniProt Q96SB4)	1.08 ± 0.011	1.14 ± 0.035	1.22 ± 0.035	1.29 ± 0.036	1.359 ± 0.011	1.46 ± 0.044
J3QT87 and related entries (UniProt Q96SW2)	0.967 ± 0.04	0.942 ± 0.058	0.963 ± 0.032	0.946 ± 0.057	1.01 ± 0.04	0.956 ± 0.034
J3KPV1 and related entries (UniProt Q9BUK0)	0.98 ± 0.03	1.01 ± 0.017	0.96 ± 0.025	0.985 ± 0.026	0.95 ± 0.022	0.962 ± 0.024
H7C5A7 and related entries (UniProt O14734)	0.962 ± 0.017	0.932 ± 0.036	0.956 ± 0.013	0.984 ± 0.061	0.97 ± 0.015	0.961 ± 0.02
J3KS22 and related entries (UniProt Q7Z4W1)	0.994 ± 0.046	0.944 ± 0.013	1.01 ± 0.062	1.09 ± 0.12	1.08 ± 0.081	1.08 ± 0.078
H0YMG7 and related entries (UniProt O94788)	0.9559 ± 0.005	0.875 ± 0.093	0.943 ± 0.014	0.9015 ± 0.003	0.917 ± 0.021	0.8663 ± 0.0029
H0YGR4 and related entries (UniProt Q9Y3B8)	0.94 ± 0.052	1.01 ± 0.016	0.897 ± 0.053	0.951 ± 0.024	0.911 ± 0.041	0.901 ± 0.069
H0Y4B0 and related entries (UniProt O43414)	1.02 ± 0.035	1 ± 0.021	1.06 ± 0.087	1.1 ± 0.15	1.1 ± 0.1	1.12 ± 0.13
H0YLF8 and related entries (UniProt P50213)	0.982 ± 0.025	0.938 ± 0.025	0.964 ± 0.041	1.01 ± 0.063	1 ± 0.036	0.993 ± 0.042
